US20220187321A1
These are yes or no findings as the source states them, for the method shown. Some binding calls cover weakened binding; strength is not graded here.

Protein sequences, listed by entry. Tags and fused reporters are not part of them. Residues count along the entry.
UniProt P48058, residues 21-902: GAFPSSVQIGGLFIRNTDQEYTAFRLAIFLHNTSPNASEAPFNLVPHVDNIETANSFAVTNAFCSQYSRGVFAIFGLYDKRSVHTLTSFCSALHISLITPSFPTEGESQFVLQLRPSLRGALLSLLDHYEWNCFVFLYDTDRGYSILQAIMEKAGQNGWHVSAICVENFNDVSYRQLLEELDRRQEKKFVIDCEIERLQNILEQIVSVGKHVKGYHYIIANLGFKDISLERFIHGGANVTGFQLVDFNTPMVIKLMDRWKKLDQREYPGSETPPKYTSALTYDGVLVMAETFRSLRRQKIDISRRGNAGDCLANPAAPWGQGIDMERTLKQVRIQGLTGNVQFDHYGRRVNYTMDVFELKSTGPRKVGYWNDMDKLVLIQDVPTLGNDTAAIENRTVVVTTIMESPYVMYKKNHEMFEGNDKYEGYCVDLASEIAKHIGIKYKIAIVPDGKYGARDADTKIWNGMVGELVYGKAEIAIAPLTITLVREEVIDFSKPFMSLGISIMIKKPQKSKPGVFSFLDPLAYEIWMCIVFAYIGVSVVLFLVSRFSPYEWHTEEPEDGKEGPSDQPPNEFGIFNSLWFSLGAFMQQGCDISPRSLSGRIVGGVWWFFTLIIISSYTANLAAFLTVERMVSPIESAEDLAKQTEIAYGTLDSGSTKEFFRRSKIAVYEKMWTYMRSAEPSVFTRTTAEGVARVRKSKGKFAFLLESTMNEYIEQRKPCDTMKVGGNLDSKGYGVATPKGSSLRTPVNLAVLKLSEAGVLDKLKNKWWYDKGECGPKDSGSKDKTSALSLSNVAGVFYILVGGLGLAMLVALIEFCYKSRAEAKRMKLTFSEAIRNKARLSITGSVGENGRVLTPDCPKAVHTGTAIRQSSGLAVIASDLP

Columns and labels:
[1] = target: Glutamate Ionotropic Receptor AMPA Type Subunit 4 (human) (UniProt P48058); experiment: solid-phase PLA on human plasma, larger cohort
[2] = target: Glutamate Ionotropic Receptor AMPA Type Subunit 4 (human) (UniProt P48058); experiment: solid-phase PLA on human plasma (Ctrl n=50, AD n=40)
[3] = target: Glutamate Ionotropic Receptor AMPA Type Subunit 4 (human) (UniProt P48058); experiment: solid-phase PLA on human plasma (Ctrl n=34, AD n=33)
[4] = target: Glutamate Ionotropic Receptor AMPA Type Subunit 4 (human) (UniProt P48058); experiment: solid-phase PLA on serially diluted human plasma; anti-NPTX2 capture, anti-NPTX2 and anti-GluA4 oligonucleotide probes
[5] = target: Glutamate Ionotropic Receptor AMPA Type Subunit 4 (human) (UniProt P48058); experiment: solid-phase PLA with qPCR readout on human plasma of AD (n=40) and control (n=50) subjects; probes anti-NPTX2 and rabbit anti-GluA4; endogenous complex
[6] = target: Glutamate Ionotropic Receptor AMPA Type Subunit 4 (human) (UniProt P48058); experiment: solid-phase PLA with qPCR readout on 50 uL human plasma of AD (n=33) and control (n=34) subjects; capture anti-NPTX2, probes anti-NPTX2 and rabbit anti-GluA4; endogenous complex
[7] = target: Glutamate Ionotropic Receptor AMPA Type Subunit 4 (human) (UniProt P48058); experiment: solid-phase PLA with qPCR readout on human plasma two-fold serially diluted in NPTX2-depleted plasma; capture anti-NPTX2, probes anti-NPTX2 and rabbit anti-GluA4; endogenous complex
[8] = target: Glutamate Ionotropic Receptor AMPA Type Subunit 4 (human) (UniProt P48058); experiment: solid-phase PLA with qPCR readout on human plasma two-fold serially diluted in PBS; capture anti-NPTX2, probes anti-NPTX2 (plus strand) and rabbit anti-GluA4 (minus strand); endogenous complex

Measured: binding

B1: Neuronal Pentraxin 2 (ligand, human, UniProt P47972 16-431, looked up)
chain: GAQDSPAPGSRFVCTALPPEAVHAGCPLPAMPMQGGAQSPEEELRAAVLQLRETVVQQKETLGAQREAIRELTGKLARCEGLAGGKARGAGATGKDTMGDLPRDPGHVVEQLSRSLQTLKDRLESLEHQLRANVSNAGLPGDFREVLQQRLGELERQLLRKVAELEDEKSLLHNETSAHRQKTESTLNALLQRVTELERGNSAFKSPDAFKVSLPLRTNYLYGKIKKTLPELYAFTICLWLRSSASPGIGTPFSYAVPGQANEIVLIEWGNNPIELLINDKVAQLPLFVSDGKWHHICVTWTTRDGMWEAFQDGEKLGTGENLAPWHPIKPGGVLILGQEQDTVGGRFDATQAFVGELSQFNIWDRVLRAQEIVNIANCSTNMPGNIIPWVDNNVDVFGGASKWPVETCEERLLDL
binds: [1] | [2] | [3] | [4] | [5] | [6] | [7] | [8]
